Laboratory results from patent US6376653 (GlaxoSmithKline, dated 2002).
These are yes or no findings as the source states them, for the method shown. Some binding calls cover weakened binding; strength is not graded here.

By UniProt entry, the sequences of proteins in these tests, tags left out. Residues count along the entry.
UniProt Q02763, residues 23-748: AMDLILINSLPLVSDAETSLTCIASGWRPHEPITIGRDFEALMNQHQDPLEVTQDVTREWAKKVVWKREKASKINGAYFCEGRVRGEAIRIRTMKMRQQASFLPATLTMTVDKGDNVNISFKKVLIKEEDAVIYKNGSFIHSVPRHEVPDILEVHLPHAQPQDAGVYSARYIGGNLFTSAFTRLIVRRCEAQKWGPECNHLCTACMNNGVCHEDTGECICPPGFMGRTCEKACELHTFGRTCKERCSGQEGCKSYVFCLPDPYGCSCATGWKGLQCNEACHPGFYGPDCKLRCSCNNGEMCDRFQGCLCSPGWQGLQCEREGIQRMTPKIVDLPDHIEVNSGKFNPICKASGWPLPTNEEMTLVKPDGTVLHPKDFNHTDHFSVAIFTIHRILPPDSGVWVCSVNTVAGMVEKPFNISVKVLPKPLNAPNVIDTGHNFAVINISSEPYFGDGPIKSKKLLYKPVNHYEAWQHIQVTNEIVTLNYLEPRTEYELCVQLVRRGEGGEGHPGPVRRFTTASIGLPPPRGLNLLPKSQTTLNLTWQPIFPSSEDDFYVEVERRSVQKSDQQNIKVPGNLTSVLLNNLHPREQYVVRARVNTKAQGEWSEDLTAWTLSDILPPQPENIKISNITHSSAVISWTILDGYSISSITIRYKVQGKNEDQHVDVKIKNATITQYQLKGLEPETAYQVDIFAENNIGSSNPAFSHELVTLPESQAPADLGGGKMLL

Assays:
[1] = biological target: recombinant Tie2 extracellular domain-Fc fusion (UniProt Q02763); test: BIAcore SPR, purified mAb captured on rabbit anti-mouse IgG Fc, Tie2-Fc injected
[2] = biological target: recombinant Tie2 extracellular domain-Fc fusion (UniProt Q02763); test: BIAcore SPR, hybridoma supernatant; mAb captured on rabbit anti-mouse IgG Fc then Tie2-Fc injected, and the reverse format

B1: monoclonal antibody 12H8 (antibody, V domains shown)
VH: EVQLVESGGGLVKPGGSLKLSCAASGFTFSDYGMHWVRQAPEKGLEWVAYINSGSSTITYADTVKGRFTISRDNAKNTLFLQMTSLRSEDTAIYYCARGYYGPYYFDYWGQGTALTVSS
VL: DIVMTQSHKFMSTSVGDRVSFTCKASQNVGTAVAWYQQKPGQSPKLLIYWASSRHTGVPDRFTGSGSGTDFTLTITNVQSEDLADYFCQEYSSYPLTFGVGTKLELK
notes: also called mAb 12H8
[1]
  binding: binds
[2]
  binding: binds
